In article PMC4146615 one finds Kd data, which are given here for 1 sequence.

For at least one entry, the source does not settle the construct or the ends of the probe. Where a protein sequence is shown, tags need not be part of it. Bounds are passed on as bounds.

In this data set the target is T1, SoxR (Streptomyces coelicolor) (UniProt Q9S255).
T1 sequence (looked up, limits assumed): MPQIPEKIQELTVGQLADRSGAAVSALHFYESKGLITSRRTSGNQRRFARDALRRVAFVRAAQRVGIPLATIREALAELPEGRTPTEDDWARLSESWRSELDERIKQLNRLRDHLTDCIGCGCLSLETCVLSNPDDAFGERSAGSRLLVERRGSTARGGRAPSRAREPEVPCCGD
Put plainly: EMSA. Conditions: no binding at highest SoxR tested; EMSA: 10 mM Tris-HCl pH 8, 75 mM KCl, 0.1 mM DTT, 10% glycerol, 2 mM MgCl2, 0.1 ug poly(dI)-poly(dC), 2 mM dAMP, 30 uL, 6 fmol probe, SoxR 0-20 nM, 15 min 25 C; recombinant protein; protein details: His-tag; label: DIG end label; probe letters rebuilt from the primers and the genome.

As for “GTACGACGGTGGGCAAGTCACTGCTCCTGATGGGCGGCGAGTAGGCCCGCGCCGACCGGCGGCACCAAGGGATTGACAACACCGGAGCGTCAATCCTGATGATCTTGGTGTTGGTCCCGACCGGCCGGGCGATGCCATGCTGGGCCCCGCCCCACAGGCGTGCAGCGAGAG (double strand) [SCO0321 upstream probe]”, the Kd is greater than 20 nM.
